Measured values from paper doi:10.1101/153262.
These are yes or no findings as the source states them, for the method shown. Some entries that bind do so weakly or less than the wild type.

Target: T1, Enterococcus italicus Cas10 (Csm1) subunit of the EiCsm(1-5) type III-A interference complex (Enterococcus italicus DSM-15952) (UniProt E6LHV7)
T1 sequence: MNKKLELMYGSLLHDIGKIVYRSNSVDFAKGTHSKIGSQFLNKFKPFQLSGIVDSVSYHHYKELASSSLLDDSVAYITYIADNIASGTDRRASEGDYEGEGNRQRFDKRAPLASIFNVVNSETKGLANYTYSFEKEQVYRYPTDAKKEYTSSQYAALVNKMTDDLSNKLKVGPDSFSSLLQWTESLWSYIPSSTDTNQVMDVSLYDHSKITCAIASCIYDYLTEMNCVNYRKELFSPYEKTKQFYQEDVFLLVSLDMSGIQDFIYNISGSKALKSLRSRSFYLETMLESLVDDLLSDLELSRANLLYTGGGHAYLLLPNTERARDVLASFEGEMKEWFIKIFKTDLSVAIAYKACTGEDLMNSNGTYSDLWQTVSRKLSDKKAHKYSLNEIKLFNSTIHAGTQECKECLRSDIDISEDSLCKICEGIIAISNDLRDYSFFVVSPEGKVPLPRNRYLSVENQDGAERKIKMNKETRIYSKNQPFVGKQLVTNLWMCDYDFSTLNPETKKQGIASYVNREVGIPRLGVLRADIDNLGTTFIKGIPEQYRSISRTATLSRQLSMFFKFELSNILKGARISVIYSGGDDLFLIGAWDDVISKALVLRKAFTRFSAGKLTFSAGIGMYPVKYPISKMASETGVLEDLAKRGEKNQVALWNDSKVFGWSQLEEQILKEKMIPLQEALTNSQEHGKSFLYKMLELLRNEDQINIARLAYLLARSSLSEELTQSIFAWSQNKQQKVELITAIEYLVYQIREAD
Experiment: co-purification

B1: Enterococcus italicus Csm2 subunit of the EiCsm(1-5) complex (protein, UniProt E6LHV6 1-140)
chain: MELAKTKTGEMIDLNFARKVVEENKRVKDNRGRQEIVLFNGLTTSKLRNLLELINHVYTKVYNSDDTTLSEDVRDELEYLKVKFAYESGREPAVRTFIEKTYVDKLVDVVLKKNTKKIFLDYCKYFEALVAYAKFYRMGD
For B1, the binding was “binds”.

B2: Enterococcus italicus Csm3 subunit of the EiCsm(1-5) complex (enzyme, UniProt E6LHV5 1-214)
chain: MYSKIRIVGKIDVLTGLHIGGGGETSMIGAIDSPVVRDPYSRLPIIPGSSIKGKMRSLLAKHIGLIPGQKMHNQDAPEILRLFGSSQKGAIQSSRLQISDAFFSKASQEEFDKKDLAYTETKFENTISRLTAVANPRQIERVTRGASFDFHIIYNVENINEVMADFENIKTAIHLLENDYLGGGGTRGNGRIRFVIDSIDTVVGDFDSSNLSIK
With B2 the binding was “binds”.

B3: Enterococcus italicus Csm4 subunit of the EiCsm(1-5) complex (protein, UniProt E6LHV4 1-307)
chain: MNQLVVKLVKLTFKSPVHFGMKRLSDSNHTIAADTLFSALIIEALQQQLELSHLLNNLVITDLFPYNKTSYFLPKPLIRIEGKKGDESGYKAFKKLTYIPVENYSEYLRGEIDSLEASKIAESLNLGKASLSTKVSLQAVDHNGESEPYSVGNFTFYPESGLYFLAKGNADTIGQLEILMHALQYSGIGGKRSAGYGQFRCTIEDSGKFDSLLSQTGNIAILLSSAMASDEELVDCLEDARYLLKKRTGFVQSKTYADQLVKKKDFYAFSAGSTFYQKFNGKIFDVSDNGRHSVYRYAKAFWLEGKI
For B3, the binding was “binds”.

B4: Enterococcus italicus Csm5 subunit of the EiCsm(1-5) complex (protein, UniProt E6LHV3 1-349)
chain: MIEKVYQVKLKVYGPVHIGSGKIIRKQEYIYDRRKSLAHIVDGPNLVKFLNKKGKFTAYLQYLNTTKERADLYTFLRQEQIDTNDWKTFVLYTERVNQGKIDMKDHNPYSRTSTNRRQVDKGMNDLHLFVRDGRGDLYIPGSSLKGALRTVLEGANQSAEAFHSLSISDSLPIDPKNLAIYQKIDINKELKPMPLYRECVNVGTTVEFTMKINSDDWTIEKIEKQIQQAYLQYWNKWFVGMVTTPGGKAFIKGGGLPSVLHAKHRPTVLFLGGGTGFPSKTTHYLQKPKEQAQKDIFAILQRRFRNVYGKMATVPKNVPMVLKGTVNDSTNKWYQQGVCLLEFQPIGEA
For B4, the binding was “binds”.

B5: Enterococcus italicus Csm3 D32A (enzyme, UniProt E6LHV5 1-214)
chain: MYSKIRIVGKIDVLTGLHIGGGGETSMIGAIASPVVRDPYSRLPIIPGSSIKGKMRSLLAKHIGLIPGQKMHNQDAPEILRLFGSSQKGAIQSSRLQISDAFFSKASQEEFDKKDLAYTETKFENTISRLTAVANPRQIERVTRGASFDFHIIYNVENINEVMADFENIKTAIHLLENDYLGGGGTRGNGRIRFVIDSIDTVVGDFDSSNLSIK
With B5 the binding was “binds”.
